Some of these results come from one statement about several compounds together.
Tested on: Acinetobacter baumannii 6M-1b
Assay: MIC90 broth microdilution
Type: cell-based
Conditions: environmental isolate, listed as meropenem

C[C@@H](O)[C@H]1C(=O)N2C(C(=O)O)=C(S[C@@H]3CN[C@H](C(=O)N(C)C)C3)[C@H](C)[C@H]12 [Meropenem, reference compound] gave an MIC90 of 0.25 to 4.0 µg/mL.

Reference: US10870646B2, “Oxazolidinones and pharmaceutical compositions thereof for treating bacterial infections, including infection of Mycobacterium tuberculosis” (University of St. Thomas, priority 2017, dated 2020)
